# Data: PubChem BioAssay AID2685 (National Center for Advancing Translational Sciences (NCATS), 2010)
# The other results are listed elsewhere or left out. Shown are side measurements of this screen, not its main read-out; they come without a call. Most of these compounds were active or inconclusive in the main read-out, so they are no random draw. The note in brackets gives the kind of curve behind each potency; many fits are weak.
# Test: qHTS Assay for Lipid Storage Modulators in Drosophila S3 Cells;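 as to cell number change: cells counted by Cell Tracker Red CMTPX staining in the red channel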
# Details: BODIPY lipid droplet fluorescence, 18-24 h; for cell number change: measured here: cell count max response, cells fed with added oleic acid
# In short: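 Laser-scanning cytometry quantifies lipid droplet accumulation (500–530 nm total intensity; droplet/cell object ratio) in oleic acid-fed (400 uM added) Drosophila S3 cells treated with a concentration series. 20 uM Triacsin C defined 100% inhibition.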
# [1] = measured here: cell number channel AC50, cells fed with added oleic acid
# [2] = measured here: lipid fluorescence (Fed channel) AC50, cells fed with added oleic acid
Compound,cell number change,AC50 [1],AC50 [2]
Cc1nc(N2CCC(C)CC2)c2oc3ccccc3c2n1,-63.9%,"20.6 µM [falling, partial curve]","32.6 µM [falling, partial curve, poor fit]"
CCN1CCn2c1nc(N1CCOCC1)nc2=O,11.1%,–,"18.4 µM [falling, partial curve]"
CCSc1cnc(-c2ccccc2)n1CC,156%,"6.51 µM [falling, single point]",–
CCN(CCNC(=O)CC1Oc2ccccc2NC1=O)c1ccccc1 (stereo not given),-4.42%,–,–
O=C(CCC(=O)OCC(=O)c1ccc(C(F)(F)F)cc1)OCC(=O)c1ccc(C(F)(F)F)cc1,-18.3%,–,–
CCCCCc1cc(=O)oc2c(C(CCN3CCCC(C)C3)c3ccc4c(c3)OCO4)c(OC)cc(OC)c12 (stereo not given),-76.5%,"23.1 µM [falling, single point]","29.1 µM [falling, single point]"
O=C1c2cccnc2C(=O)N1c1cccc([N+](=O)[O-])c1,-1.89%,–,–
CCOC(=O)N1CCN(C(=O)CSc2nc3c([nH]c4ccccc43)c(=O)n2CC)CC1,-48.5%,"5.17 µM [falling, partial curve]",–
Cc1ccc(NS(=O)(=O)c2ccc3c(c2)oc(=O)n3C)cc1F,-5.59%,–,"0.731 µM [rising, full curve, poor fit]"
COc1ccc(Nc2sc(C(=O)c3ccc(Cl)cc3)c(N)c2C(=O)Nc2ccccc2OC)cc1,-8.44%,–,"2.91 µM [rising, partial curve, poor fit]"
CCOc1ccc(CSC(=N)N)cc1Cl,–,"5.8 µM [falling, single point]",–
CC1Cc2ccccc2N1C(=O)CCn1c(=O)sc2ccccc21 (stereo not given),1.11%,–,"2.06 µM [rising, partial curve]"
Cc1ccc(C)n1CCN1CCN(C(=O)CC#N)CC1,-31.6%,"18.4 µM [falling, single point]","29.1 µM [falling, single point]"
O=C(/C=C/c1ccc(S(=O)(=O)NCc2ccco2)cc1)N1CCN(c2ccccc2)CC1,48.4%,"1.03 µM [rising, full curve]","10.3 µM [rising, single point]"
Cc1nnsc1SCCNC(=O)Nc1ccc(Cl)cc1,-20.2%,"2.24 µM [falling, full curve, poor fit]","6.31 µM [falling, single point]"
COc1cc(NC(=O)CSc2nnc3ccccn23)cc(OC)c1,2.43%,–,–
Cc1c(OC(C)C(=O)NCCCn2ccnc2)ccc2c3c(c(=O)oc12)CCC3 (stereo not given),-2.12%,–,–
COc1ccc(NC(=O)NNC(=O)C(C)Oc2ccc(C(C)C)cc2)c(OC)c1 (stereo not given),29.2%,"2.31 µM [rising, full curve, poor fit]","3.66 µM [falling, partial curve]"
CC1CCCN(C(=O)CSc2nc3ncccc3[nH]2)C1 (stereo not given),-18.8%,–,"18.4 µM [falling, single point]"

# Nine structures already listed, ordered by number of heavy atoms, largest number first.
Compound,cell number change,AC50 [1],AC50 [2]
COc1ccc(Nc2sc(C(=O)c3ccc(Cl)cc3)c(N)c2C(=O)Nc2ccccc2OC)cc1,-8.44%,–,"2.91 µM [rising, partial curve, poor fit]"
O=C(CCC(=O)OCC(=O)c1ccc(C(F)(F)F)cc1)OCC(=O)c1ccc(C(F)(F)F)cc1,-18.3%,–,–
O=C(/C=C/c1ccc(S(=O)(=O)NCc2ccco2)cc1)N1CCN(c2ccccc2)CC1,48.4%,"1.03 µM [rising, full curve]","10.3 µM [rising, single point]"
COc1ccc(NC(=O)NNC(=O)C(C)Oc2ccc(C(C)C)cc2)c(OC)c1 (stereo not given),29.2%,"2.31 µM [rising, full curve, poor fit]","3.66 µM [falling, partial curve]"
CCN(CCNC(=O)CC1Oc2ccccc2NC1=O)c1ccccc1 (stereo not given),-4.42%,–,–
COc1cc(NC(=O)CSc2nnc3ccccn23)cc(OC)c1,2.43%,–,–
CC1CCCN(C(=O)CSc2nc3ncccc3[nH]2)C1 (stereo not given),-18.8%,–,"18.4 µM [falling, single point]"
CCN1CCn2c1nc(N1CCOCC1)nc2=O,11.1%,–,"18.4 µM [falling, partial curve]"
CCSc1cnc(-c2ccccc2)n1CC,156%,"6.51 µM [falling, single point]",–

# Continuation.

Compound,cell number change,AC50 [1],AC50 [2]
CC(NC(=O)CSc1nc2ccccc2c(=O)n1CCCO)c1ccccc1 (stereo not given),–,–,"0.291 µM [rising, partial curve, poor fit]"
O=C(NNC(=O)c1ccco1)c1ccc(NS(=O)(=O)c2cccs2)cc1,3.74%,–,"5.17 µM [rising, full curve]"
O=C(Nc1ccccc1)C1CCN(C(=O)c2ccc(Br)cc2)CC1,7.43%,–,"29.1 µM [falling, single point]"
C1CCc2c(nc3nnnn3c2NC2CCCC2)C1,-2.82%,–,–
CCOCCCNCC(=O)Nc1ccc(S(=O)(=O)NC(C)CC)cc1 (stereo not given),-23.2%,–,"0.291 µM [falling, full curve]"
CCc1cc(C(=O)O)c(NC(=O)/C=C/c2ccc(OC)c(OC)c2)s1,-29.5%,–,"6.51 µM [falling, single point]"
Cc1ccc(NC(=O)C2CCN(S(=O)(=O)c3cccnc3)CC2)cc1C,–,–,"20.6 µM [falling, single point]"
CCOC(=O)N1CCN(CC(O)COC2CC(C)CCC2C(C)C)CC1 (stereo not given),17.2%,–,"6.51 µM [falling, partial curve]"
Cc1ccc(CN(Cc2cc3cccc(C)c3[nH]c2=O)C(=O)N(C)C)cc1,9.13%,–,"0.517 µM [rising, full curve]"
CCN(C(=O)COc1cc(=O)n(CC)c2ccccc12)c1cc(Cl)ccc1OC,-6.73%,–,"5.17 µM [rising, partial curve]"
Cc1nc(C)c(-c2ccc(SCC(=O)Nc3ccccc3)nn2)s1,-13.9%,–,"0.326 µM [rising, full curve, poor fit]"
C=CCn1c(COc2ccccc2F)nnc1SCC(=O)N1CC(=O)Nc2ccccc21,–,"2.06 µM [rising, partial curve]","2.91 µM [rising, partial curve]"
Cc1ccc(OCC(=O)NC2=NCCS2)cc1,12.2%,–,"16.4 µM [falling, single point]"
Cc1ccc(C2=CC(=O)C[C@H](c3ccc(F)cc3)C2)cc1,-32.7%,"14.6 µM [falling, partial curve, poor fit]","16.4 µM [rising, single point]"
O=C(NNC(=O)c1cccs1)c1ccc(S(=O)(=O)N2CCCCC2)cc1,–,"0.13 µM [rising, full curve, poor fit]","0.00411 µM [falling, full curve, poor fit]"
Cc1ccc(Nc2nc(C(=O)NCCCN3CCOCC3)cs2)cc1,-5.4%,–,"0.082 µM [rising, full curve, poor fit]"
COc1ccc(CCN2CC(C(=O)OCC(=O)N(C)Cc3ccccc3)CC2=O)cc1OC (stereo not given),-23%,–,"29.1 µM [rising, single point]"
Cc1ccc(NC2=NCC(=O)N2Cc2ccc3c(c2)OCO3)c(C)c1,–,"0.366 µM [rising, partial curve]","0.231 µM [rising, full curve]"
C=CCSc1nc2ccccc2n1C(=O)/C=C/c1cc(OC)c(OC)c(OC)c1,-42.1%,"7.31 µM [falling, partial curve]","16.4 µM [falling, partial curve]"
